Tested on: central carbon metabolic pathways of C2C12 cells
Test: Mass isotopomer distribution analysis (MIDA) with [1,2-13C2]-glucose, GC/MS
Assay type: cell-based, Mus musculus mouse
Conditions: PPD-treated C2C12, 24 h
Protocol: To track and measure the substrate carbon flux through central carbon metabolic pathways of C2C12 cells when treated with PPD, mass isotopomer distribution analysis (MIDA), and metabolic modeling approaches were used.
Cells were cultured in DMEM (Biowithaker) °supplemented with 10% dialyzed heat-inactivated Fetal Bovine Serum (FBS), glucose (10 mM, 50% isotope enrichment [1,2-^13C2]-glucose), asparagine (20 mg/ml), penicillin (100 U/ml), and streptomycin (100 μg/ml). […] Initially each flask contained 10^6 cells and the incubation was carried out for 24 h. To separate medium and cell pellets, cells were centrifuged at the end of incubation (3000 × g, 5 min). Afterwards, pellet and medium were stored at −20°C for metabolite isolations.
• Glucose. A mixed DOWEX 50-DOWEX 1 ionic exchange column was used to corroborate that the original medium contained 50% of labeled glucose ([1,2-^13C2] D-glucose). First, 500 μl of medium and after 6 ml of milliQ water were passed through the column and were collected into a glass tube. Next, it was lyophilized for 12 h to eliminate the remaining liquid and the dried sample was stored. Finally, hydroxyl-amine in pyridine and acetic anhydride were used to derivatize glucose to its aldonitrile form. The ion cluster was set to m/z 328 (C1–C6, chemical ionization; Wamelink et al., [2008]). • Glycogen. Glycogen for biochemical and isotopomerics distribution determination was extracted as described in Burchert ([2007]), by direct digestion of sonicated extracts with amyloglucosidase. Measurement of glucose released from glycogen was done by using the isotopomer [U-13C6-1,2,3,4,5,6,6-D7]D-glucose (or [U-13C-D7]-glucose as shorter name) as recovery standard and internal standard quantification procedures. The hydrolyzed glucose was isolated using ion exchange chromatography (Mao et al., [2002]) and was derivatized to its aldonitrile acetate form using hydroxyl-amine in pyridine and acetic anhydride. We monitored the ion cluster around the m/z 328 (C1–C6, chemical ionization; Wamelink et al., [2008]). • Lactate. Lactate from the culture media of C2C12 cells, which had been cultured and treated as explained above, was extracted by ethyl acetate. In more detail, 1 ml of culture medium was acidified with 2–3 drops of HCl, followed by addition of 1 ml of ethyl acetate and a little amount of sodium chloride and 1 min shaken. Next, the samples rest for 2 min and were centrifugated at 4,000 rpm for 10 min in a Jouan B3.11 centrifuge. Next, organic phase was transferred to a tube and the remaining ethyl acetate was removed by applying aa slight N2 pressure for 10–15. Lactate was derivatized to its propylamideheptafluorobutyric form. Next, the m/z 328 was monitored (C1–C3, chemical ionization, Wamelink et al., [2008]). • Ribose from RNA. Acid hydrolysis of the cellular RNA was used to isolate ribose from C2C12 treated and non-treated cells with the fractions as indicated above. First, 1 ml of Trizol was added and dissolved by sonication (30 s) to the cold pellets, next, it was transferred to free RNase eppendorfs and 200 μl of chloroform were added. Next, the samples were shaken and centrifuged in an Eppendorf microfuge for 30 min at 14,000 rpm at 4°C. Chloroform and RNA from the non-colored upper phase was collected and 1 ml of cold 2-propanol was added and the mixture was reposing overnight to precipitate the DNA. Next, samples were centrifuged as indicated above. RNA was further purified by removing the supernatant, next 1 ml of 75% cold ethanol was added. The samples were shaken and centrifuged to eliminate the supernatant and re-suspended with 10 μl of miliQ water and 2 ml of HCl 2N. Next, the samples were heated at 100°C for 2 h, cooled at room temperature (acid hydrolysis of RNA) and dried with air preasured to eliminate the remaining liquid or stored stored at −80°C. Acetic anhydride and hydroxyl-amine in pyridine were used to derivatize ribose to the aldonitrile acetate form. […]

With Nc1ccc(N)cc1 [PPD, p-phenylenediamine] as the molecule, how does the “Glucose m0 isotopologue fraction, mean” value read?
Its value is 0.542.

And the “Glucose m1 isotopologue fraction, mean” value?
The value was 0.0016.

What about the “Glucose m2 isotopologue fraction, mean” value of the same molecule?
The value was 0.456.

And the “Glucose m3 isotopologue fraction, mean” value?
The value was 0.0001.

And the “Glucose m4 isotopologue fraction, mean” value?
The value was 0.

And the “Glucose m5 isotopologue fraction, mean” value?
Its value is 0.

What about the “Glucose m6 isotopologue fraction, mean” value of the same molecule?
Its value is 0.

And the “Glutamate_c2-4 m0 isotopologue fraction, mean” value?
The value was 0.937.

And the “Glutamate_c2-4 m1 isotopologue fraction, mean” value?
Its value is 0.0412.

What about the “Glutamate_c2-4 m2 isotopologue fraction, mean” value of the same molecule?
The value was 0.0188.

What about the “Glutamate_c2-4 m3 isotopologue fraction, mean” value of the same molecule?
Its value is 0.00305.

And the “Glutamate_c2-4 m4 isotopologue fraction, mean” value?
The value was 0.

What about the “Glutamate_c2-4 m5 isotopologue fraction, mean” value of the same molecule?
Its value is 0.

What about the “Glutamate_c2-5 m0 isotopologue fraction, mean” value of the same molecule?
Its value is 0.939.

What about the “Glutamate_c2-5 m1 isotopologue fraction, mean” value of the same molecule?
Its value is 0.0209.

What about the “Glutamate_c2-5 m2 isotopologue fraction, mean” value of the same molecule?
The value was 0.0373.

What about the “Glutamate_c2-5 m3 isotopologue fraction, mean” value of the same molecule?
The value was 0.

What about the “Glutamate_c2-5 m4 isotopologue fraction, mean” value of the same molecule?
Its value is 0.0026.

What about the “Glutamate_c2-5 m5 isotopologue fraction, mean” value of the same molecule?
The value was 0.

What about the “Glycogen m0 isotopologue fraction, mean” value of the same molecule?
Its value is 0.773.

What about the “Glycogen m1 isotopologue fraction, mean” value of the same molecule?
The value was 0.0006.

What about the “Glycogen m2 isotopologue fraction, mean” value of the same molecule?
Its value is 0.225.

What about the “Glycogen m3 isotopologue fraction, mean” value of the same molecule?
Its value is 0.0007.

And the “Glycogen m4 isotopologue fraction, mean” value?
Its value is 0.

And the “Glycogen m5 isotopologue fraction, mean” value?
The value was 0.0005.

And the “Glycogen m6 isotopologue fraction, mean” value?
Its value is 0.0007.

What about the “Lactate m0 isotopologue fraction, mean” value of the same molecule?
The value was 0.847.

And the “Lactate m1 isotopologue fraction, mean” value?
Its value is 0.0078.

What about the “Lactate m2 isotopologue fraction, mean” value of the same molecule?
The value was 0.145.

What about the “Lactate m3 isotopologue fraction, mean” value of the same molecule?
The value was 0.

What about the “Ribose-5-P m0 isotopologue fraction, mean” value of the same molecule?
Its value is 0.865.

And the “Ribose-5-P m1 isotopologue fraction, mean” value?
The value was 0.0896.

What about the “Ribose-5-P m2 isotopologue fraction, mean” value of the same molecule?
Its value is 0.0294.

What about the “Ribose-5-P m3 isotopologue fraction, mean” value of the same molecule?
The value was 0.0139.

What about the “Ribose-5-P m4 isotopologue fraction, mean” value of the same molecule?
Its value is 0.0018.

And the “Ribose-5-P m5 isotopologue fraction, mean” value?
The value was 0.

Reference: publication PMC5338303, “Unveiling the Metabolic Changes on Muscle Cell Metabolism Underlying p-Phenylenediamine Toxicity” (Frontiers in Molecular Biosciences, 2017)
